This note sets out measurements from PubChem BioAssay AID1347426 (Functional Genomics Laboratory (NCATS/FGL), 2020).

The whole screen tested about 31,000 sequences, of which about 1,400 (4.5%) were called active.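 Rule for the calls: active = median seed-adjusted z-score above 1 or below -1; inactive = the rest.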 The list shows a part of the results.

The experiment in a line: Novel Modifiers of Survival Motor Neuron (SMN) Protein: Gene Identification via Genome-wide siRNA Screen.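 Note: luminescence tracks full-length SMN protein made from the SMN2 reporter.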 Conditions: HEK293T SMN2-luciferase reporter, siRNA knockdown, 72 h; actives lie on both sides. An outline of the steps: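 siRNA screen, 10418 genes ×3 siRNAs; 1 pmol/well, lipid reverse transfection into HEK293T SMN2-luc reporter line. 72 h, 37 °C, 5% CO2; ONE-Glo readout. Data: neg-ctrl normalized, log10, MAD; hit = MAD >1.0 or < -1.0.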
Take GGAAGUAUUAGGGUACAAATT against SOS2: the median seed-adjusted z-score was inactive: 0.3.
As for AGCUUGAAAUCUCAUGGAATT against SPINK5L2, the median seed-adjusted z-score is inactive: 0.482.
The same measure for GCCGAGUACUGAACAUUGUTT against P2RY4: inactive: -0.389; for CGCCUAUGUUUGGUGAUUATT against ALG6: inactive: 0.106; for CCCUCAGACUAUGACCUUUTT against BST1: inactive: -0.28.
With GCAUCAAGCCGGGUGUGAUTT against PAX2, the median seed-adjusted z-score was inactive: 0.341.
Take GCAUUACUGUAUUAUACCATT against PIGW: the median seed-adjusted z-score was inactive: -0.242.
For CCAGUGCUGCAUUUCAGUUTT against KRTAP5-6, the median seed-adjusted z-score was inactive: 0.185.
The same measure for GCUUACCAAUGAAACUCGATT against USP46: inactive: -0.964; for CGACAACAUAUGUUCCGGATT against TNFRSF11B: inactive: 0.582; for GUGUCUACCUGAUCACCAUTT against FPR3: inactive: -0.605.
The same measure for UGAUUGUUUUCAAUGGGAATT against CANT1: inactive: 0.
The same measure for GGCAGUACGCGGAGAAGAATT against EEF1D: inactive: 0.421.
On to CUCAUGUGAUUUUACGAUATT against AMFR, for which the median seed-adjusted z-score is inactive: -0.15.
The same measure for GUGCAUGCAGGAGAAGUCATT against GATA2: inactive: 0.623; for CUAUGUCGUUGAAAACCAUTT against KCNE1: inactive: -0.347.
The same measure for GGAUUUGAUUACUUACUAATT against EEF2K: inactive: 0; for GGAUAUGGAACUCACGUUATT against ITLN2: inactive: 0.00733.
Consider GGUGGAGGACCAAACAGAATT against MGAT4B, for which the median seed-adjusted z-score was inactive: 0.0142.
The same measure for CCAGCCUUAUAACAGCUGATT against NR2E3: inactive: -0.184; for AGAUGGAUGUGCCCAGCAATT against PCGF2: inactive: 0.187; for CUCUCAUCGUCAUCCUUGATT against SLC6A17: inactive: -0.41.
The same measure for GCAUGAUUGUUUCAAGUCATT against TWIST2: inactive: 0.363; for “AGCAACUACUGGAAAUUUUTT against ST6GALNAC2”: inactive: 0; for CAGUGGAAUGAAUUCAGUUTT against CDC42SE2: inactive: 0.381.
As to GGAGGACUCGUUAUCUGUATT against KLF12, the median seed-adjusted z-score was inactive: -0.0892.
The same measure for GGAGGUCACAAAAUUAGCATT against AKR1C3: inactive: -0.00538.
The same measure for GCGACGAAGUGCUACGAAATT against ITGA2: inactive: 0.106; for CUACGACUGUGACAACCCATT against GRIN2B: inactive: 0.0402; for GGAUUCAGCUCGUUACCAUTT against TWF1: inactive: -0.171.
The same measure for CGAGACAAGACGCAGCUUUTT against LDLRAD2: inactive: -0.459; for CAGCAUUCUUGUAAACGGATT against EPS15: inactive: -0.478; for GCAGGGUUAGCAUAAAGGATT against MOBKL3: inactive: 0.575.
Consider CGAAGGGAAUUUCCACUAUTT against REN, for which the median seed-adjusted z-score is inactive: -0.48.
The same measure for GCAGACAGGUCAAAUCUGATT against SNAI2: inactive: 0; for GCCUUGUGCCGUGCACUAUTT against CHST14: inactive: 0.228; for GGCAGAACCUAUACCAGAATT against MED6: active: -2.15.
The same measure for CGGACAGGGUCUACAUCAATT against MIF: inactive: 0.214; for GGACAUCGAAAAGUUAGUATT against MX2: inactive: -0.0346; for GUAUUGCGGUGAUCAAAUATT against ZNF589: inactive: -0.0897.
The same measure for GGUUCCUCCAUUCAGCUUATT against TRIM74: inactive: 0.0932.
Consider AGCCUUUAGUGUCCGUUCATT against ZNF347, for which the median seed-adjusted z-score is inactive: 0.
The same measure for GGACGAAUGAGUUCCAGUUTT against PCDHB8: active: 1.15; for GUUCUUCAGUGACGCCCGATT against SPTBN4: inactive: -0.0625; for GCCUUAGUGUGCCUCCCAATT against APLN: inactive: 0.0181.
The same measure for GCAGGAUGAUCUCAAGUAUTT against MOBKL2B: inactive: -0.613; for GCGUGAAUGAUAAAGGGCUTT against DPP4: inactive: 0.0394; for GUUGCACGAUGGGAACACATT against PEMT: inactive: 0.0218.
The same measure for GCAUCAUGUUUAUUGCGAATT against ABCB11: inactive: 0.14.
As for GAAGGACUAUCACAUCGAATT against HAAO, the median seed-adjusted z-score was inactive: 0.214.
The same measure for GAACGUACUCUUGCUUAUATT against ATP6V1D: inactive: 0.594; for CACUGACUCGGAAACUGCATT against IGF2BP3: inactive: -0.636.
For CGGACAUGGUGGAAUCAGUTT against VAT1, the median seed-adjusted z-score was inactive: -0.744.
Take GACACUAUCUUGCUAGGCATT against UTY: the median seed-adjusted z-score was inactive: -0.538.
The same measure for GCGGGUUACUUUUUGGGCATT against SLC33A1: inactive: 0.2; for CGAGUUCUGUAUACUCUAATT against GABRG1: inactive: 0.312.
The same measure for CCGAGGAUCUGUCCACCAATT against ZNF366: inactive: 0.585; for CAGCUACUUUCAUACAGCATT against PKP2: inactive: -0.0809; for CAUAAGGUCUUUGAAGGAATT against GPI: inactive: -0.122.
As for CCAUCACGUUCAUUACCUUTT against GAN, the median seed-adjusted z-score is active: -1.07.
As to GGACUAAAUAGGAAUAGUUTT against PDE3B, the median seed-adjusted z-score was inactive: -0.0475.
The same measure for CCAUCUACAUCAGAGUCCATT against BTN1A1: inactive: 0.291.
The same measure for GCAGAGAUCUUAUUGCAUATT against DNMT3L: inactive: 0.0651.
The same measure for GACUAUCAAUUCACAUGAATT against OMG: inactive: 0.273; for CCAAUAGCAGUUACCCAAATT against SMAD1: inactive: -0.0282.
For GGCACGAGGUCAUCUCUUUTT against ZNF557, the median seed-adjusted z-score is inactive: -0.197.
The same measure for CAAACUUGGACUUUCCAAATT against MAP2K1IP1: inactive: 0.333; for AAAUCCUUGGGUCAACAUUTT against NOX1: inactive: -0.221.
The same measure for CCAAUUCACCCACUCCCUUTT against AQP1: inactive: 0.274; for AAGUGAAGAUGGUCUUUGATT against VIPR1: inactive: 0.168.
The same measure for AGCACCUCGUGAACCACUATT against KCTD7: inactive: 0.484.
For the sequence CAAUGAAGAAUCGAAUGAATT against IBSP, the median seed-adjusted z-score was inactive: -0.111.
GCGACUUUCCUAAGACCUUTT against MEF2B: the median seed-adjusted z-score was inactive: 0.263.
The same measure for GGAGAGUGGUGAUCGGAUATT against MYOM3: inactive: -0.012; for GCUACGCUUUGGAAUCUAUTT against CPNE1: inactive: -0.0206.
Consider AGAUCUACAUUUCAACCCUTT against AKAP1, for which the median seed-adjusted z-score was inactive: 0.182.
The same measure for CAAGCUCCAUUUUGAAUCATT against SRR: inactive: -0.256; for GAAGCUCCGAGUUCUCUUATT against ZXDC: inactive: -0.0213.
Turning to GAACUAUACAUGCGAAGAATT against RDX, the median seed-adjusted z-score was inactive: 0.123.
The same measure for GGUUUUAACUGCGAGAGUATT against FN1: inactive: -0.312.
As to GGAUCAUCGAGUGCAAUGATT against GAMT, the median seed-adjusted z-score was inactive: -0.161.
The same measure for GGAAGGGUAUCAUUACAGATT against TPBG: inactive: -0.128; for GACUGGUGUUUAUCUAUGATT against PTPN9: inactive: 0.148; for AGAUGGUAACCAUACUCUATT against COX6A1: inactive: -0.0917.
As to GUUCAGACAUCAUAAGAGATT against RAD18, the median seed-adjusted z-score is inactive: 0.562.
The same measure for AGUUUGUGAUAUCAUGAGATT against FRMPD2: inactive: -0.329.
GUGCACUACUUACAGUUCATT against MAK10: the median seed-adjusted z-score was inactive: 0.124.
For the sequence GCACGGUCAUGGUUCGAAUTT against PCDHB4, the median seed-adjusted z-score is inactive: 0.00998.
Consider GUGGUUAACUUGGACCUCATT against PARVB, for which the median seed-adjusted z-score was inactive: -0.0102.
The same measure for CAGCUGUGCUAAUCGGCUATT against COL15A1: inactive: 0.161; for GGAAAGAGCUUUCACAGGATT against RCOR3: inactive: 0.0446; for GCACCUACUCCUAUCCCGATT against RFX1: inactive: 0.818.
GUGCGAAGGUUUUUAAUCATT against ZNF816A: the median seed-adjusted z-score was inactive: 0.39.
The same measure for GCCUGUCUCUCAUAAAGUATT against DDOST: inactive: -0.315; for GGAACCUCUCAAGAGCUUATT against VPS72: inactive: 0.572.
For GGAUGGAACCAAGAGAGCATT against CARD10, the median seed-adjusted z-score was inactive: -0.929.
The same measure for GCAUCGUACUAUGAACAGUTT against CPB2: inactive: -0.62.
The same measure for GCUUUGUAGUUUGCCCAGATT against TCAP: inactive: -0.177; for GCAUAUUCCGGUGAUAACUTT against RAB6C: active: -1.08; for GGAGCUGAUCAUCAACAAATT against SYMPK: inactive: 0.946.
As to GCACUGUACGCUACGGAGATT against KCNJ10, the median seed-adjusted z-score was inactive: -0.0371.
The same measure for UGAGGAUAUUUAAAAUUCATT against CLDN6: inactive: -0.281.
The same measure for GGAAAGAGCUUCUACGUGUTT against TTF2: inactive: 0.282.
The same measure for AGAUGACAGAAGACAUGAATT against APOB48R: inactive: 0.386; for CGGCCUAACUUUCAAGACATT against SDK2: inactive: 0.908.
Take CCUUCAAUAAUACCUCCAATT against ZNF691: the median seed-adjusted z-score is inactive: 0.28.
Take GCUUAGUCGAAUACGGAGATT against CHL1: the median seed-adjusted z-score was inactive: 0.1.
